Assay [1] has as its target FAM20C-D478A-FLAG, catalytically inactive variant (UniProt Q8IXL6). Nature of the assay: co-IP; plasmids co-transfected into HEK293T cells in specified combinations; which partner was precipitated is not stated.
In assay [2] the target is Extracellular serine/threonine protein kinase FAM20C, FLAG-tagged (FAM20C-FLAG) (UniProt Q8IXL6). Described as above.

Chains of the proteins cited; added tags and fusions are not shown. Lines headed by an entry give the natural chain unless they say otherwise; changes in a name come on top. A line that says so, or that is headed by a name, gives the form on record, which may keep a tag or linker.
UniProt Q8IXL6: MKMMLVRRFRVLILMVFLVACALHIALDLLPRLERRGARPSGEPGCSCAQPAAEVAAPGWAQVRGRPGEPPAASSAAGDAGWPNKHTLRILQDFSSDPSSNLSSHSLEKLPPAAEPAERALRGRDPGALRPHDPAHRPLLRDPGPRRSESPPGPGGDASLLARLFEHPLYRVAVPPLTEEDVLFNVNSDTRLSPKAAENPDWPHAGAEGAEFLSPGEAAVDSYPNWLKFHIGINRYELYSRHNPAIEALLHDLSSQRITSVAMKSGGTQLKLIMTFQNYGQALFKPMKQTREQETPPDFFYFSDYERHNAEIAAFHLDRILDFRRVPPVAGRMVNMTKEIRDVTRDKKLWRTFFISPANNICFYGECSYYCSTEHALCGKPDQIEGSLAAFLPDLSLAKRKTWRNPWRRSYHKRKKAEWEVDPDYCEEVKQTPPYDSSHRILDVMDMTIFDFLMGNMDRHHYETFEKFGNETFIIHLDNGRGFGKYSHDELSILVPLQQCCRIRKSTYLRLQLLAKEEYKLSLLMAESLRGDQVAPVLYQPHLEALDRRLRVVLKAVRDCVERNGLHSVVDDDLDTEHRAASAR
Scaffold attachment factor B, HA-tagged (SAFB-HA) (Q15424-3, form named): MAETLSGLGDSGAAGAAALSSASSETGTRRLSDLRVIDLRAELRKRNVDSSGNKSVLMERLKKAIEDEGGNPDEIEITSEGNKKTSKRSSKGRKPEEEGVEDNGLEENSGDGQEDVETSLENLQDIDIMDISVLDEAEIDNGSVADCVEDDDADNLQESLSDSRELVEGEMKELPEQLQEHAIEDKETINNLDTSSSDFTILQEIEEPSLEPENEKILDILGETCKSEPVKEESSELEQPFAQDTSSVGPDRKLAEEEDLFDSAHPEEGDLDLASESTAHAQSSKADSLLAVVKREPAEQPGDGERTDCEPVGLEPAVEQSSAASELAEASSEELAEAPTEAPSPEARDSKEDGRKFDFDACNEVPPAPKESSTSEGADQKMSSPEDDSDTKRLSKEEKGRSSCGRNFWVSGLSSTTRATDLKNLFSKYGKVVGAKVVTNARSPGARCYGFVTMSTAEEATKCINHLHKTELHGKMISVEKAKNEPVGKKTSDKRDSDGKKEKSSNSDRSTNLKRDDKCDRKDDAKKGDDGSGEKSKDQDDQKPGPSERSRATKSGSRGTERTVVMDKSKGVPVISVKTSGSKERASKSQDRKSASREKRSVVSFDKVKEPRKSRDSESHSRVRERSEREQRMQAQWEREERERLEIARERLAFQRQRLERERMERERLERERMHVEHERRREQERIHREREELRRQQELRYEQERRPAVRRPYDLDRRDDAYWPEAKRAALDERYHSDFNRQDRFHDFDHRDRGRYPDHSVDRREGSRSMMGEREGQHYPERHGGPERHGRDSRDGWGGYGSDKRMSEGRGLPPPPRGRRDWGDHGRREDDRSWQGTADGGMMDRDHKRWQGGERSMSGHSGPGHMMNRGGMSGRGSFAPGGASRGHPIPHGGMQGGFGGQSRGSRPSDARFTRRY

The results in this text go back to publication PMC12774626.

No constants are given. Whether binding was seen depends on the method and setting. In cells and extracts the contact can be indirect. Binding can be weak; no strength is given. Sequences can lack the tags named with a protein.

Turning to “Scaffold attachment factor B, HA-tagged (SAFB-HA) (from UniProt Q15424-3 1-917)”, the binding result in assay [1] and in assay [2] was “binds” each time.
In the case of “KRAB-associated protein 1, HA-tagged (KAP1-HA), in HEK293T (from UniProt Q13263-1 1-835)”, the binding result in assay [1] and in assay [2] was “binds” throughout.
In the case of “Sequestosome 1, HA-tagged (SQSTM1-HA) (from UniProt Q13501-2 1-356)”, the binding entry in assay [1] and in assay [2] was “no binding” throughout.

B1: Diacylglycerol lipase-alpha, HA-tagged (DAGLA-HA) (enzyme, UniProt Q9Y4D2 1-1042)
chain: MPGIVVFRRRWSVGSDDLVLPAIFLFLLHTTWFVILSVVLFGLVYNPHEACSLNLVDHGRGYLGILLSCMIAEMAIIWLSMRGGILYTEPRDSMQYVLYVRLAILVIEFIYAIVGIVWLTQYYTSCNDLTAKNVTLGMVVCNWVVILSVCITVLCVFDPTGRTFVKLRATKRRQRNLRTYNLRHRLEEGQATSWSRRLKVFLCCTRTKDSQSDAYSEIAYLFAEFFRDLDIVPSDIIAGLVLLRQRQRAKRNAVLDEANNDILAFLSGMPVTRNTKYLDLKNSQEMLRYKEVCYYMLFALAAYGWPMYLMRKPACGLCQLARSCSCCLCPARPRFAPGVTIEEDNCCGCNAIAIRRHFLDENMTAVDIVYTSCHDAVYETPFYVAVDHDKKKVVISIRGTLSPKDALTDLTGDAERLPVEGHHGTWLGHKGMVLSAEYIKKKLEQEMVLSQAFGRDLGRGTKHYGLIVVGHSLGAGTAAILSFLLRPQYPTLKCFAYSPPGGLLSEDAMEYSKEFVTAVVLGKDLVPRIGLSQLEGFRRQLLDVLQRSTKPKWRIIVGATKCIPKSELPEEVEVTTLASTRLWTHPSDLTIALSASTPLYPPGRIIHVVHNHPAEQCCCCEQEEPTYFAIWGDNKAFNEVIISPAMLHEHLPYVVMEGLNKVLENYNKGKTALLSAAKVMVSPTEVDLTPELIFQQQPLPTGPPMPTGLALELPTADHRNSSVRSKSQSEMSLEGFSEGRLLSPVVAAAARQDPVELLLLSTQERLAAELQARRAPLATMESLSDTESLYSFDSRRSSGFRSIRGSPSLHAVLERDEGHLFYIDPAIPEENPSLSSRTELLAADSLSKHSQDTQPLEAALGSGGVTPERPPSAAANDEEEEVGGGGGGPASRGELALHNGRLGDSPSPQVLEFAEFIDSLFNLDSKSSSFQDLYCMVVPESPTSDYAEGPKSPSQQEILLRAQFEPNLVPKPPRLFAGSADPSSGISLSPSFPLSSSGELMDLTPTGLSSQECLAADKIRTSTPTGHGASPAKQDELVISAR
B1: the binding result in assay [1] and in assay [2] was “binds” each time.

B2: Adenosine deaminase RNA specific (ADAR), in HEK293T (enzyme, UniProt P55265-5 1-931)
chain: MAEIKEKICDYLFNVSDSSALNLAKNIGLTKARDINAVLIDMERQGDVYRQGTTPPIWHLTDKKRERMQIKRNTNSVPETAPAAIPETKRNAEFLTCNIPTSNASNNMVTTEKVENGQEPVIKLENRQEARPEPARLKPPVHYNGPSKAGYVDFENGQWATDDIPDDLNSIRAAPGEFRAIMEMPSFYSHGLPRCSPYKKLTECQLKNPISGLLEYAQFASQTCEFNMIEQSGPPHEPRFKFQVVINGREFPPAEAGSKKVAKQDAAMKAMTILLEEAKAKDSGKSEESSHYSTEKESEKTAESQTPTPSATSFFSGKSPVTTLLECMHKLGNSCEFRLLSKEGPAHEPKFQYCVAVGAQTFPSVSAPSKKVAKQMAAEEAMKALHGEATNSMASDNQPEGMISESLDNLESMMPNKVRKIGELVRYLNTNPVGGLLEYARSHGFAAEFKLVDQSGPPHEPKFVYQAKVGGRWFPAVCAHSKKQGKQEAADAALRVLIGENEKAERMGFTEVTPVTGASLRRTMLLLSRSPEAQPKTLPLTGSTFHDQIAMLSHRCFNTLTNSFQPSLLGRKILAAIIMKKDSEDMGVVVSLGTGNRCVKGDSLSLKGETVNDCHAEIISRRGFIRFLYSELMKYNSQTAKDSIFEPAKGGEKLQIKKTVSFHLYISTAPCGDGALFDKSCSDRAMESTESRHYPVFENPKQGKLRTKVENGEGTIPVESSDIVPTWDGIRLGERLRTMSCSDKILRWNVLGLQGALLTHFLQPIYLKSVTLGYLFSQGHLTRAICCRVTRDGSAFEDGLRHPFIVNHPKVGRVSIYDSKRQSGKTKETSVNWCLADGYDLEILDGTRGTVDGPRNELSRVSKKNIFLLFKKLCSFRYRRDLLRLSYGEAKKAARDYETAKNYFKKGLKDMGYGNWISKPQEEKNFYLCPV
With B2, the binding result in assay [1] and in assay [2] was “binds” throughout.
